Experimental data published in PubChem BioAssay AID504444 (National Center for Advancing Translational Sciences (NCATS), 2011).
Hit rate of the full screen: of about 360,000 compounds, about 7,500 (2.1%) were called active. Inconclusive results, whose numbers are uncertain, are shown with a selection of clear calls. The call rests on the fitted dose curve; in most records, active means well fitted inhibition curve with a large enough effect; inconclusive means small, poorly fitted or top-dose-only effect, or effect the other way; inactive means flat fitted curve, though single readings scatter. A potency beside an inconclusive call is a rough fit, not a confirmed value.

experiment: Nrf2 qHTS screen for inhibitors; details: A549 ARE-Fluc reporter, luciferase luminescence, 18-24 h; series mostly up to 46 µM; further: nearly all actives have a fitted effect of over 60% in size
Summary of the method: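 Nrf2 activity is the BugLite luminescence, read 15 min after reagent at room temperature, following CellTiter-Fluor cytotoxicity readout (30 min, 37C). Compound titrations were applied for 18-24 h to 5000 A549 ARE_Fluc cells/well in 5% FBS OPTI-MEM.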
Potency means the concentration at half of the fitted maximal effect.

Row | SMILES | Potency
1 | O=[N+]([O-])c1ccc(CSc2nc3ccccc3o2)cc1 | inconclusive: 0.731 µM [activator, full curve, poor fit]
2 | CN1CCN(Cc2nc3ccccc3c(=O)n2Cc2nc(-c3ccccc3F)cs2)CC1 | inactive
3 | CCCc1ccc(Oc2cc(Cl)nc(N)n2)cc1 | inconclusive: 16.4 µM [activator, partial curve, poor fit]
4 | O=c1[nH]c2ccccc2c2ccc(Cl)cc12 | inconclusive: 3.26 µM [falling, partial curve, poor fit]
5 | Cc1ccc(OCc2nc3ccccc3[nH]2)cc1 | inconclusive: 4.11 µM [activator, partial curve]
6 | O=C(CCC(=O)Nc1ccc(Cl)cc1Cl)N/N=C/c1ccc([N+](=O)[O-])o1 | active: 18.4 µM
7 | Cc1ccnc(NC(c2ccccc2)c2ccc3cccnc3c2O)c1 (configuration not stated) | inconclusive: 29.1 µM [falling, single point]
8 | Cc1cnc(C(=O)N2CCCC(C(=O)c3ccc(Cl)cc3C)C2)cn1 (configuration not stated) | inconclusive: 14.6 µM [falling, partial curve, poor fit]
9 | Cc1cc(OCCCC(=O)Nc2cc(S(=O)(=O)N3CCOCC3)ccc2N2CCOCC2)ccc1Cl | inconclusive: 29.1 µM [falling, single point]
10 | CCn1c(-c2ccccc2Cl)nn(CC(=O)Nc2cc(Cl)ccc2Cl)c1=S | active: 16.4 µM
11 | COc1ccc(OCc2nnc(NC(=O)Nc3ccc(F)cc3)s2)cc1 | inactive
12 | Cc1ccc(C(=O)NCCC(=O)N2CCOCC2)cc1 | inconclusive: 1.46 µM [activator, full curve]
13 | CCCOc1ccc(C(=O)Nc2cccc(-c3nc4ccccc4[nH]3)c2)cc1 | inconclusive: 29.1 µM [falling, single point]
14 | O=C(COC(=O)c1ccc2c(c1)OCCO2)Nc1cc(Cl)ccc1Cl | inconclusive: 23.1 µM [falling, partial curve, poor fit]
15 | C=CCn1c(C)cc(C2=NNC(=NCc3ccccc3)SC2)c1C | inconclusive: 29.1 µM [activator, single point]
16 | CCCc1noc2c1/C(=N\O)CC(CC(C)SCC)C2 (configuration not stated) | inconclusive: 32.6 µM [falling, single point]
17 | O=C(COC(=O)Cc1c(Cl)cccc1Cl)Nc1ccccc1-c1ccccc1 | inconclusive: 23.1 µM [falling, single point]
18 | CNc1c([N+](=O)[O-])cnn1-c1ccccc1Cl | inconclusive: 5.8 µM [activator, full curve]
19 | Cc1ccc(NC(=O)Cn2c(=O)n(Cc3ccccc3)c(=O)c3c(C)c(C)sc32)c(C)c1 | inactive
20 | CN(C)S(=O)(=O)c1ccc(N2CCCC2)c(C(=O)NC2CCC(O)CC2)c1 (configuration not stated) | inconclusive: 2.91 µM [activator, full curve, poor fit]
21 | COCCN(CCOC)C(=O)c1c[nH]c2ccc(S(=O)(=O)N(C)c3ccc(F)cc3)cc2c1=O | inactive
22 | CCC(Cc1ccccc1)NC(=O)c1ccc2nc(N3CCC(C)CC3)sc2c1 (configuration not stated) | inactive
23 | CCc1ccccc1NC(=O)C1=CC(c2ccc(OC)c(OC)c2)=NS(=O)(=O)N1C | inconclusive: 29.1 µM [activator, single point]

Row | SMILES | Potency
24 | COc1ccc2nc(SCC(C)=O)c(C#N)cc2c1 | inconclusive: 16.4 µM [activator, partial curve]
25 | CCc1nc2n[nH]c(N)c2c2c1CSC(C)(C)C2 | inactive
26 | CCCCN(Cc1ccccc1)S(=O)(=O)c1cc(Br)cc2c1N(C(C)=O)C(C)C2 (configuration not stated) | inconclusive: 23.1 µM [falling, partial curve, poor fit]
27 | Cn1c(Oc2ccc3c(c2)OCO3)nc2c1c(=O)n(Cc1ccccc1)c(=O)n2C | inconclusive: 1.46 µM [falling, partial curve, poor fit]
28 | Cc1ccc2nc(-c3ccccc3)cc(C(=O)NCCCn3ccnc3)c2c1 | inactive
29 | COc1ccc(N2C(=O)C(=O)/C(=C(/O)c3ccc(C)cc3)C2c2cccnc2)cc1 (configuration not stated) | inconclusive: 16.4 µM [activator, single point]
30 | COc1cccc(CNC(=S)NC2CCCC2)c1 | inconclusive: 16.4 µM [falling, partial curve, poor fit]
31 | Cc1cccc(/C=C/c2onc(C)c2S(=O)(=O)N2CCC(C(=O)N3CCC(C)CC3)CC2)c1 | inconclusive: 20.6 µM [falling, single point]
32 | O=C(OCC#CCSc1nnc(-c2cccc3ccccc23)o1)c1sc(Cl)c(Cl)c1Cl | inactive
33 | Cc1nn(-c2ccccc2)c(Cl)c1/C=C1\SC(=S)NC1=O | inconclusive: 25.9 µM [falling, single point]
34 | O=C(/C=C/c1cccs1)c1ccc(NC(=O)c2ccccc2F)cc1 | inactive
35 | Cc1ccc(NC(=O)c2cccc(S(=O)(=O)N3CCCC3)c2)nc1 | inconclusive: 14.6 µM [activator, partial curve, poor fit]
36 | O=C(Nc1ccc2c(c1)OCCO2)C1CCN(S(=O)(=O)c2ccc3c(c2)OCCO3)CC1 | inconclusive: 32.6 µM [falling, single point]
37 | Cc1cccc(C)c1NC(=O)Cn1nnc(-c2ccc(CN3CCC(C)CC3)cc2)n1 | inconclusive: 6.51 µM [activator, single point]
38 | CC(=O)O[C@H](COc1c2ccoc2cc2oc(=O)ccc12)C(C)(C)O | inconclusive: 0.82 µM [activator, full curve]
39 | CCN(CC)C(=O)c1ccc2nc3ccccc3nc2c1 | active: 1.46 µM
40 | O=C(c1ccc(N2CCCC2)c([N+](=O)[O-])c1)N1CCc2ccccc2C1 | inconclusive: 29.1 µM [falling, single point]
41 | CC(=O)Nc1ccc2nc(NC(=O)c3ccco3)sc2c1 | inconclusive: 1.46 µM [activator, full curve]
42 | CC(C)C(C)(C#N)NC(=O)COC(=O)C1CCN(S(=O)(=O)c2ccc3c(c2)OCCO3)CC1 (configuration not stated) | inconclusive: 32.6 µM [falling, single point]
43 | COc1ccccc1C(=O)Nc1ccc2c(c1)nc1n2CCN(Cc2ccccc2)C1 | inconclusive: 10.3 µM [falling, partial curve, poor fit]
44 | CCC(=O)NC(c1ccccc1OC)c1ccc2cccnc2c1O (configuration not stated) | inconclusive: 23.1 µM [falling, single point]
45 | Cc1cccc(NCC(=O)N/N=C\c2cccc(Oc3ccccc3)c2)c1 | inconclusive: 18.4 µM [falling, partial curve]
46 | O=C(Nc1ccc(F)cc1)c1cc(S(=O)(=O)N2CCOCC2)cs1 | inactive

Four neighbouring entries out of the list so far, for reference:
Row | SMILES | Potency
36 | O=C(Nc1ccc2c(c1)OCCO2)C1CCN(S(=O)(=O)c2ccc3c(c2)OCCO3)CC1 | inconclusive: 32.6 µM [falling, single point]
37 | Cc1cccc(C)c1NC(=O)Cn1nnc(-c2ccc(CN3CCC(C)CC3)cc2)n1 | inconclusive: 6.51 µM [activator, single point]
38 | CC(=O)O[C@H](COc1c2ccoc2cc2oc(=O)ccc12)C(C)(C)O | inconclusive: 0.82 µM [activator, full curve]
39 | CCN(CC)C(=O)c1ccc2nc3ccccc3nc2c1 | active: 1.46 µM

3 structures out of the list, ordered by molar mass, largest number first.
Row | SMILES | Potency
23 | CCc1ccccc1NC(=O)C1=CC(c2ccc(OC)c(OC)c2)=NS(=O)(=O)N1C | inconclusive: 29.1 µM [activator, single point]
14 | O=C(COC(=O)c1ccc2c(c1)OCCO2)Nc1cc(Cl)ccc1Cl | inconclusive: 23.1 µM [falling, partial curve, poor fit]
45 | Cc1cccc(NCC(=O)N/N=C\c2cccc(Oc3ccccc3)c2)c1 | inconclusive: 18.4 µM [falling, partial curve]

(continued)

Row | SMILES | Potency
47 | CC1=C(C#N)C(c2cccnc2)C2=C(N1)c1ccccc1C2=O (configuration not stated) | inactive
48 | COc1ccc2oc(=O)cc(CN(C)Cc3ccccc3)c2c1 | inconclusive: 25.9 µM [falling, partial curve, poor fit]
49 | CCOc1ccc(CNC(=O)C2CCCN(c3nc4c(C)cc(C)cc4s3)C2)cc1 (configuration not stated) | inconclusive: 6.51 µM [activator, partial curve]
50 | O=C(O)CCCCCNc1nc(-c2ccccc2)nc2ccccc12 | inconclusive: 25.9 µM [falling, single point]
51 | Cc1c(C(=S)Nc2ccccc2)cnn1-c1ccccc1 | inconclusive: 32.6 µM [falling, single point]
52 | CC1(C)O[C@H]2[C@@H](O1)[C@@H](C(=O)Nc1ccccc1O)O[C@@H]1OC(C)(C)O[C@@H]12 | inconclusive: 29.1 µM [activator, single point]
53 | Cc1cccc(C)c1Nc1c(-c2ccsc2)nc2ccccn12 | active: 18.4 µM
54 | O=C(Nc1ccc(Cl)cc1)c1ccc(CN2CCc3ccccc3C2)cc1 | inconclusive: 4.61 µM [falling, full curve]
55 | Clc1ccc2c(c1)C1OCCC1C(c1ccco1)N2 (configuration not stated) | inactive
56 | Cc1ccc(CN(Cc2cccnc2)C(=S)Nc2cc(Cl)ccc2C)cc1 | inconclusive: 8.2 µM [falling, partial curve, poor fit]
57 | O=[N+]([O-])c1ccc(N2CCN(c3ccccc3)CC2)nc1 | inconclusive: 2.06 µM [falling, full curve, poor fit]
58 | CCN(CC)c1ccc(CNc2nc3ccccc3n2CCN2CCCCC2)cc1 | inconclusive: 29.1 µM [falling, single point]
59 | COc1ccccc1C(=O)NCCC(=O)Nc1nc2ccccc2[nH]1 | inconclusive: 32.6 µM [falling, single point]
60 | COc1cccc2c1OCC(CN1CCN(CCC(C)C)C(CCO)C1)=C2 (configuration not stated) | inconclusive: 13 µM [activator, partial curve, poor fit]
61 | O=[N+]([O-])c1ccccc1N/N=C/c1ccccc1 | inconclusive: 2.91 µM [activator, full curve]
62 | Cc1cccn2c(=O)c(/C=C(\C#N)c3nc4ccccc4n3C)c(Oc3ccc(Br)cc3)nc12 | inactive
63 | Brc1ccc(-c2nnc(Cc3ccccc3)o2)cc1 | inconclusive: 2.59 µM [activator, full curve, poor fit]
64 | Cc1ccc(NC(=O)CCCn2nc(C)c3c(C)n(-c4ccccc4)nc3c2=O)cc1Cl | inconclusive: 29.1 µM [activator, single point]
65 | COc1ccc(CCNC(=O)Cn2nc(C)n3nc(-c4ccccc4)cc3c2=O)cc1OC | inactive
66 | CCOC(=O)c1sc2ncnc(N3CCN(C)CC3)c2c1C | inconclusive: 29.1 µM [falling, single point]
67 | Cc1ccc(NC(=O)c2sc3ccccc3c2Cl)cc1 | inconclusive: 1.3 µM [activator, full curve, poor fit]
